Experimental data: PubChem BioAssay AID1259327 (Drosophila RNAi Screening Center, 2017)
The deposit covers about 3,100 reagents; this is a random part of them. 378 of all reagents (12%) were called active. 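Hits include both directions; z-score sign shows ATP rise or fall; raw luminescence values are not plate-normalised.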 Entries without a mark were called inactive. The numbers tell different reagents against one gene apart. No sequences are given here. Not stated in the record: the amount of reagent.

- Aim: 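Data from controls in screens of zinc and manganese toxicity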
- System: Drosophila S2R+ cells
- Reagent: long dsRNA against Drosophila genes
- Duration: 5 days (water added on day 4, read one day later)
- Conditions: water added as vehicle, no metal, one day before read-out
- Read-out: 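Luciferase ATP signal per well, normalised to plate mean, duplicate average converted to z-score across plates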
- Reading the numbers: ATP z-score: higher = more total ATP than typical wells; ATP luminescence: higher = more total ATP
- Rule for the call: 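a hit is any knock-down whose absolute ATP z-score is greater than 1.5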
- Meaning of the calls: active = hit: ATP up or down; inactive = no clear ATP change

predicted target | reagent no. | ATP z-score, duplicate mean | ATP luminescence, replicate 1 (RLU) | ATP luminescence, replicate 2 (RLU)
CrzR | 1 | -0.201 | 9.14e5 | 8.27e5
CrzR | 2 | -0.567 | 6.54e5 | 7.10e5
ppk17 | 1 | 0.122 | 7.01e5 | 7.76e5
ppk17 | 2 | 1.86 (active) | 5.44e5 | 6.41e5
Elo68beta | 1 | -0.0598 | 9.03e5 | 8.73e5
CG33296 | 1 | -0.262 | 6.72e5 | 7.59e5
CG33296 | 2 | 0.163 | 8.81e5 | 8.07e5
VhaM9.7-b | 1 | -0.5 | 8.36e5 | 8.25e5
CG13995 | 1 | 0.24 | 5.84e5 | 6.16e5
CG13995 | 2 | -0.986 | 9.59e5 | 9.29e5
Ir84a | 1 | -0.383 | 8.67e5 | 8.25e5
Ir84a | 2 | 3.18 (active) | 1.16e6 | 9.63e5
Ir75a | 1 | 1.05 | 1.14e6 | 9.34e5
Ir75a | 2 | 0.705 | 5.21e5 | 4.79e5
Mics1 | 1 | -0.171 | 2.67e5 | 8.07e5
Mics1 | 2 | 0.911 | 5.38e5 | 4.90e5
moody | 1 | 1.08 | 7.56e5 | 7.73e5
Gr93c | 1 | -0.7 | 2.66e5 | 6.91e5
Orct | 1 | 0.837 | 8.02e5 | 7.82e5
Orct | 2 | -0.11 | 7.04e5 | 9.70e5
otk | 1 | -0.134 | 6.24e5 | 5.91e5
otk | 2 | 0.552 | 8.35e5 | 9.38e5
otk | 3 | 0.642 | 6.41e5 | 6.26e5
otk | 4 | -1.39 | 5.21e5 | 4.01e5
CG31600 | 1 | 0.233 | 6.02e5 | 5.97e5
CG31600 | 2 | -1.15 | 3.84e5 | 4.14e5
CG16736 | 1 | -0.18 | 2.83e5 | 7.63e5
Gr77a | 1 | -1.19 | 5.60e5 | 6.95e5
Gr77a | 2 | -0.572 | 8.95e5 | 1.03e6

Quoted from above (2 entries):
predicted target | reagent no. | ATP z-score, duplicate mean | ATP luminescence, replicate 1 (RLU) | ATP luminescence, replicate 2 (RLU)
Orct | 2 | -0.11 | 7.04e5 | 9.70e5
otk | 1 | -0.134 | 6.24e5 | 5.91e5
